Measured values published in patent US20160368919A1, “NOVEL PYRIDINE PYRAZINONES AS BET-FAMILY BROMODOMAIN INHIBITORS” (Pfizer Inc., priority 2015, published 2016).

Assays:
LnCaP cells, AR(+) = assay: CRPC cell proliferation assay (CellTiter-Glo), LnCaP; type: cell-based; conditions: Homo sapiens, CTG at 96h
Protocol: (§1) Castrate-Resistant Prostate Cancer (CRPC) Cell Proliferation Assay • Cells were seeded into 96-well plates at 2,000-10,000 cells/well in 100 uL medium. Four AR(+) cell lines (LnCaP, C4-2 (parental), C4-2AR-WT and C4-2AR—F876L) and one AR(−) cell line (DU-145) were studied. Compound treated cells were analyzed for cell density at 96h, using CellTiter-Glo® (CTG) reagent (Promega). […] Example 10 and IBET-151 BET had submicromolar IC50 values in the AR(+) cell lines. The inhibitors maintained potency in C4-2 cells engineered to express wild type (WT) AR receptor (C4-2-AR-WT), as well as cells engineered to express the F876L mutation (C4-2-AR-F876L) that confers resistance to androgen receptor (AR) antagonists.

C4-2AR-WT cells, AR(+) = assay: CRPC cell proliferation assay (CellTiter-Glo), C4-2AR-WT; type: cell-based; conditions: CTG at 96h
Protocol: as §1

- IC50 (LnCaP cells, AR(+)): 0.32 µM
SMILES: CNC(=O)c1ccc(N2C(=S)N(c3ccc(C#N)c(C(F)(F)F)c3)C(=O)C2(C)C)cc1F [MDV3100, reference compound]
- IC50 (C4-2AR-WT cells, AR(+)): 0.84 µM
